# Experimental data reported in paper PMC12431657, “Discovery and mechanistic insights of dibenzoylmethane as a broad spectrum inhibitor of coronavirus” (PLOS Pathogens, 2025).
# Where two headings read alike, the source gives them in different places. The whole screen tested about 3,300 compounds, of which about 95 (3%) showed an effect of 50% or more. Some of the results follow.
# Test system: HCoV-229E
# Parameters: species or system Huh-7; HTS, protection from HCoV-229E induced cell death, luminescent cell viability (CellCounting-Lite 2.0), inhibition rate
# Conditions: 24 h post infection, 1 h compound pre-incubation, 10 µM, inhibitor
SMILES,"229E Inhibition rate (229E Inhibition rate, 24 h) [%]",229E Inhibition rate [%]
O=P(O)(O)O[C@H]1[C@H](OP(=O)(O)O)[C@@H](OP(=O)(O)O)[C@H](OP(=O)(O)O)[C@@H](OP(=O)(O)O)[C@H]1OP(=O)(O)O [Phytic acid (potassium)],9.9,
COc1cc(O)cc(CCc2ccc(O)c(OC)c2)c1 [Gigantol],,45.6
N[C@H](CO)C(=O)O [D-Serine],,8.5
CCNC(=O)CC[C@H](N)C(=O)O [L-Theanine],,8.3
OC[C@H]1O[C@@H]2O[C@H]3[C@H](O)[C@@H](O)[C@@H](O[C@H]4[C@H](O)[C@@H](O)[C@@H](O[C@H]5[C@H](O)[C@@H](O)[C@@H](O[C@H]6[C@H](O)[C@@H](O)[C@@H](O[C@H]7[C@H](O)[C@@H](O)[C@@H](O[C@H]8[C@H](O)[C@@H](O)[C@@H](O[C@H]1[C@H](O)[C@H]2O)O[C@@H]8CO)O[C@@H]7CO)O[C@@H]6CO)O[C@@H]5CO)O[C@@H]4CO)O[C@@H]3CO [β-Cyclodextrin],,13.5
CC(C)=CCCC(C)CC=O (stereo not shown) [Citronellal],,20.2
C[C@@H]1[C@H](O)[C@@H](C)/C=C/C=C/C=C/C=C/C=C/C=C/C=C/[C@H](O[C@@H]2O[C@H](C)[C@@H](O)[C@H](N)[C@@H]2O)C[C@@H]2O[C@](O)(C[C@@H](O)C[C@@H](O)[C@H](O)CC[C@@H](O)C[C@@H](O)CC(=O)O[C@H]1C)C[C@H](O)[C@H]2C(=O)O [amphotericin B],,26.6
CC(=O)CCc1ccc(O)cc1 [Raspberry ketone],,7.5
CC1=CC[C@@H](C(C)(C)O)CC1 [(-)-α-Terpineol],35.7,
CC[C@H]1OC(=O)C[C@@H](O)[C@H](C)[C@@H](O[C@@H]2O[C@H](C)[C@@H](O[C@H]3C[C@@](C)(O)[C@@H](O)[C@H](C)O3)[C@H](N(C)C)[C@H]2O)[C@@H](CC=O)C[C@@H](C)C(=O)/C=C/C(C)=C/[C@@H]1CO[C@@H]1O[C@H](C)[C@@H](O)[C@@H](OC)[C@H]1OC [Tylosin],21.2,
O=C1CCCc2c(O)cccc21 [5-Hydroxy-1-tetralone],,49.2
C=C1C(=O)O[C@@H]2/C=C(/C)C[C@H]3C=C(C[C@H](OC(=O)/C(C)=C\C)[C@@H]12)C(=O)O3 [Scabertopin],,0
CC(C)(O[C@@H]1O[C@H](CO)[C@@H](O)[C@H](O)[C@H]1O)[C@H]1Cc2cc3ccc(=O)oc3cc2O1 [Nodakenin],,11.2
COc1cc2ccc(=O)oc2c(O[C@@H]2O[C@H](CO)[C@@H](O)[C@H](O)[C@H]2O)c1O [Fraxin],,10.9
O=C1C[C@@](O)(C(=O)O)[C@@H](C(=O)O)O1 [(-)-Hydroxycitric acid lactone],,7.8
CC(=O)O[C@@H](C[C@@H](C)C1=C2C[C@H](O)[C@H]3[C@@]4(C)CCC(=O)C(C)(C)[C@@H]4CC[C@]3(C)[C@@]2(C)CC1=O)[C@H]1OC1(C)C [Alisol C 23-acetate],,8.3
CCCCC/C=C/C(=O)O [(E)-Oct-2-enoic acid],,21.4

SMILES,"229E Inhibition rate (229E Inhibition rate, 24 h) [%]",229E Inhibition rate [%]
CC(O)CC(=O)O (stereo not shown) [3-Hydroxybutyric acid],,11.2
O=C(O)CCCCCCCCCCCO [12-Hydroxydodecanoic acid],,18.7
CC1(C)CC[C@]2(C(=O)O)CC[C@]3(C)C(=CC[C@@H]4[C@@]5(C)CC[C@H](O[C@@H]6O[C@H](C(=O)O)[C@@H](O)[C@H](O[C@@H]7OC[C@@H](O)[C@H](O)[C@H]7O[C@@H]7O[C@H](CO)[C@@H](O)[C@H](O)[C@H]7O)[C@H]6O)C(C)(C)[C@@H]5CC[C@]43C)[C@@H]2C1 [Oleanolic acid-3-O-glucosyl(1-2)xylyl(1-3)glucosiduronic acid],,6.1
CCCCCCCCCCCCCCCC(=O)NCCO [Palmitoylethanolamide],,7.7
O=C1OC[C@H]2OC(O)[C@H](O)[C@@H](O)[C@@H]2OC(=O)c2cc(O)c(O)c(O)c2-c2c(O)c(O)c3oc(=O)c4c(c(O)c(O)c5oc(=O)c2c3c54)-c2c1cc(O)c(O)c2O (mixture of isomers) [Punicalin],,14.2
CCc1ccc(O)cc1O [4-Ethylresorcinol],,19.1
CC(C)=CCC[C@](C)(O[C@@H]1O[C@H](CO)[C@@H](O)[C@H](O)[C@H]1O)[C@H]1CC[C@]2(C)[C@@H]1[C@H](O)C[C@@H]1[C@@]3(C)CC[C@H](O[C@@H]4O[C@H](CO)[C@@H](O)[C@H](O)[C@H]4O)C(C)(C)[C@@H]3CC[C@]12C [Ginsenoside F2],,9.4
CC/C=C\CCO [cis-3-Hexen-1-ol],,49.8
COC(=O)C(O)CC(C)C (stereo not shown) [Methyl 2-hydroxy-4-methylvalerate],,12.9
O=c1c(O)c(-c2ccc(O)c(O)c2)oc2cc(O[C@@H]3O[C@H](CO)[C@@H](O)[C@H](O)[C@H]3O)c(O)c(O)c12 [Quercetagitrin],,11
CCCCCCCC/C=C\CCCCCCCCCCCCCC(=O)O [Nervonic acid],,18.2
CCOCC(=O)O [Ethoxyacetic acid],,23.2
CC(C)=CC(=O)O[C@H]1Cc2cc3ccc(=O)oc3cc2OC1(C)C [Decursin],,2.9
CC=C1[C@H](O[C@@H]2O[C@H](CO)[C@@H](O)[C@H](O)[C@H]2O)OC=C(C(=O)OC)[C@H]1CC(=O)OC[C@H]1O[C@@H](OCCc2ccc(O)cc2)[C@H](O)[C@@H](O)[C@@H]1O (stereo in doubt) [Specnuezhenide],,7.4
CSCCC(=O)O [3-(Methylthio)propionic acid],,10.9
C[C@@H]1O[C@@H](OCCC(=O)O)[C@H](O)C[C@H]1O [Ascr#5],,9
CC(=O)[C@H]1CC[C@H]2[C@@H]3CC=C4C[C@@H](OS(=O)(=O)O)CC[C@]4(C)[C@H]3CC[C@]12C [Pregnenolone monosulfate (sodium)],,55.9

# Looked up by structure from above:
SMILES,"229E Inhibition rate (229E Inhibition rate, 24 h) [%]",229E Inhibition rate [%]
CC1(C)CC[C@]2(C(=O)O)CC[C@]3(C)C(=CC[C@@H]4[C@@]5(C)CC[C@H](O[C@@H]6O[C@H](C(=O)O)[C@@H](O)[C@H](O[C@@H]7OC[C@@H](O)[C@H](O)[C@H]7O[C@@H]7O[C@H](CO)[C@@H](O)[C@H](O)[C@H]7O)[C@H]6O)C(C)(C)[C@@H]5CC[C@]43C)[C@@H]2C1 [Oleanolic acid-3-O-glucosyl(1-2)xylyl(1-3)glucosiduronic acid],,6.1
CC=C1[C@H](O[C@@H]2O[C@H](CO)[C@@H](O)[C@H](O)[C@H]2O)OC=C(C(=O)OC)[C@H]1CC(=O)OC[C@H]1O[C@@H](OCCc2ccc(O)cc2)[C@H](O)[C@@H](O)[C@@H]1O (stereo in doubt) [Specnuezhenide],,7.4
